Results published in publication PMC2712759, “Hsp70 Chaperones and Type I PRMTs Are Sequestered at Intranuclear Inclusions Caused by Polyalanine Expansions in PABPN1” (PLoS ONE, 2009).
No constants are given. Whether binding was seen depends on the method and setting. Binding seen in cells or lysates may run through a third protein. Some results given as binding are weak or reduced against the parent protein; the word gives no strength. Where a sequence is shown, tags or fusion partners need not be part of it.

Key:
[1] = target: T1, expanded human PABPN1, tract of 17 alanine residues, His-tagged, biotinylated (human) (UniProt Q86U42); assay: pull-down; biotinylated His-PABPN1 (2 µg) on streptavidin-agarose beads, incubated with RNase A-treated extracts of C2 myoblasts and myotubes, 4 h at 4°C, 20 mM Tris pH 8.0, 200 mM KCl, 10% glycerol; bound proteins detected by immunoblot; only the target purified
T1 sequence (chain, biotin (EZ-Link PEO-Maleimide Activated Biotin)): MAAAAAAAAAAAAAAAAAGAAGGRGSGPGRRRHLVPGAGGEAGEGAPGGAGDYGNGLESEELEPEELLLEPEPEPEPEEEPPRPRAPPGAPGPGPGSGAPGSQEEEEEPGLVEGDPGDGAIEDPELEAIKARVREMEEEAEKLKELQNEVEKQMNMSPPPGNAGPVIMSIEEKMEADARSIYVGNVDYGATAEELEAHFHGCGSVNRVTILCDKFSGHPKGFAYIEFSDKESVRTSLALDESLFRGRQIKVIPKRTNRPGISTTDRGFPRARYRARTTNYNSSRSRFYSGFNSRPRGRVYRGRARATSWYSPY

[2] = target: T2, normal human PABPN1 (poly(A)-binding protein nuclear 1), homopolymer of 10 alanine residues, His-tagged, biotinylated (human) (UniProt Q86U42); assay: as above
T2 sequence (chain, biotin (EZ-Link PEO-Maleimide Activated Biotin)): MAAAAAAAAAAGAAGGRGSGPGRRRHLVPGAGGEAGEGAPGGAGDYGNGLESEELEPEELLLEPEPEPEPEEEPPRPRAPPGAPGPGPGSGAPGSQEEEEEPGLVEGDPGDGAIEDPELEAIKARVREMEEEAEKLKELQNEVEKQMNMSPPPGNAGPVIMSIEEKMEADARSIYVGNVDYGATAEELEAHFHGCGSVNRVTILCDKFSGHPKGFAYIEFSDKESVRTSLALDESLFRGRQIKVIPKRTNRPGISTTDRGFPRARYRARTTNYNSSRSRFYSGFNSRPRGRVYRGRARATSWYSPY

B1: Ski-interacting protein (SKIP) (protein, UniProt Q9CSN1 1-536)
chain: MALTSFLPAPTQLSQDQLEAEERARSQRSLQTSLVSSRREPPPYGYRKGWIPRLLEDFGDGGAFPEIHVAQYPLDMGRKKKMSNALAIQVDPEGKIKYDAIARQGQSKDKVIYSKYTDLVPKEVMNADDPDLQRPDEEAIKEITEKTRVALEKSVSQKVAAAMPVRAADKLAPAQYIRYTPSQQGVAFNSGAKQRVIRMVEMQKEPMEPPRFKINKKIPRGPPSPPAPVMHSPSRKMTVKEQQEWKIPPCISNWKNAKGYTIPIDKRLAADGRGLQTVHINENFAKLAEALYIADRKAREAVEMRAQVERKMAQKEKEKHEEKLREMAQKARERRAGIKTHVEKEDGEARERDEIRHDRRKERQHDRNLSRAAPDKRSKLQRNENRDISEVIALGVPNPRTSNEVQYDQRLFNQSKGMDSGFAGGEDEIYNVYDQAWRGGKDMAQSIYRPSKNLDKDMYGDDLEARIKTNRFVPDKEFSGSDRKQRGREGPVQFEEDPFGLDKFLEEAKQHGGSKRPSDSSRPKEHEHEGKKRRKE
[1]
  binding: binds
[2]
  binding: binds
